Data as given in the supplement of paper PMC10849652.
Some of the results follow.

Sequences of proteins named here, by UniProt entry; tags and fusion partners are left off. A change or cut given only in a name is not applied to a line headed by its entry.
UniProt Q16881, whole entry, looked up: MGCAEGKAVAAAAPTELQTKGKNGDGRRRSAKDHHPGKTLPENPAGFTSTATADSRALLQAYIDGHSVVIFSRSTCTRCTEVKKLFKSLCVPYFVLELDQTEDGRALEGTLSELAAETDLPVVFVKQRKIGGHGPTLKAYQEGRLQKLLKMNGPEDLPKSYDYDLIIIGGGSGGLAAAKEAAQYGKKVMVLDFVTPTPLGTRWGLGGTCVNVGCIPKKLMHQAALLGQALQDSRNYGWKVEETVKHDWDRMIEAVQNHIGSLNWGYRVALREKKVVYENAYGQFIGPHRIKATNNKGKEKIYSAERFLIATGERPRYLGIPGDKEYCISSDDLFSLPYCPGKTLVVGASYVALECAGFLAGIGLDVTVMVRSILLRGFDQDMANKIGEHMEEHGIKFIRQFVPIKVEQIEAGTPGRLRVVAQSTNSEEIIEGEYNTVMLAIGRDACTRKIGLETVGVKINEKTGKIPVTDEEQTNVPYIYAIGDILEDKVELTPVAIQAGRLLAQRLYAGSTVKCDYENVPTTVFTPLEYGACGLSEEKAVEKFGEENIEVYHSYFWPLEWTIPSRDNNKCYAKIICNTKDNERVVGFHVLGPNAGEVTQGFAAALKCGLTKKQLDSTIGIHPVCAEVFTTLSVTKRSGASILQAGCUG
UniProt Q5TAX3: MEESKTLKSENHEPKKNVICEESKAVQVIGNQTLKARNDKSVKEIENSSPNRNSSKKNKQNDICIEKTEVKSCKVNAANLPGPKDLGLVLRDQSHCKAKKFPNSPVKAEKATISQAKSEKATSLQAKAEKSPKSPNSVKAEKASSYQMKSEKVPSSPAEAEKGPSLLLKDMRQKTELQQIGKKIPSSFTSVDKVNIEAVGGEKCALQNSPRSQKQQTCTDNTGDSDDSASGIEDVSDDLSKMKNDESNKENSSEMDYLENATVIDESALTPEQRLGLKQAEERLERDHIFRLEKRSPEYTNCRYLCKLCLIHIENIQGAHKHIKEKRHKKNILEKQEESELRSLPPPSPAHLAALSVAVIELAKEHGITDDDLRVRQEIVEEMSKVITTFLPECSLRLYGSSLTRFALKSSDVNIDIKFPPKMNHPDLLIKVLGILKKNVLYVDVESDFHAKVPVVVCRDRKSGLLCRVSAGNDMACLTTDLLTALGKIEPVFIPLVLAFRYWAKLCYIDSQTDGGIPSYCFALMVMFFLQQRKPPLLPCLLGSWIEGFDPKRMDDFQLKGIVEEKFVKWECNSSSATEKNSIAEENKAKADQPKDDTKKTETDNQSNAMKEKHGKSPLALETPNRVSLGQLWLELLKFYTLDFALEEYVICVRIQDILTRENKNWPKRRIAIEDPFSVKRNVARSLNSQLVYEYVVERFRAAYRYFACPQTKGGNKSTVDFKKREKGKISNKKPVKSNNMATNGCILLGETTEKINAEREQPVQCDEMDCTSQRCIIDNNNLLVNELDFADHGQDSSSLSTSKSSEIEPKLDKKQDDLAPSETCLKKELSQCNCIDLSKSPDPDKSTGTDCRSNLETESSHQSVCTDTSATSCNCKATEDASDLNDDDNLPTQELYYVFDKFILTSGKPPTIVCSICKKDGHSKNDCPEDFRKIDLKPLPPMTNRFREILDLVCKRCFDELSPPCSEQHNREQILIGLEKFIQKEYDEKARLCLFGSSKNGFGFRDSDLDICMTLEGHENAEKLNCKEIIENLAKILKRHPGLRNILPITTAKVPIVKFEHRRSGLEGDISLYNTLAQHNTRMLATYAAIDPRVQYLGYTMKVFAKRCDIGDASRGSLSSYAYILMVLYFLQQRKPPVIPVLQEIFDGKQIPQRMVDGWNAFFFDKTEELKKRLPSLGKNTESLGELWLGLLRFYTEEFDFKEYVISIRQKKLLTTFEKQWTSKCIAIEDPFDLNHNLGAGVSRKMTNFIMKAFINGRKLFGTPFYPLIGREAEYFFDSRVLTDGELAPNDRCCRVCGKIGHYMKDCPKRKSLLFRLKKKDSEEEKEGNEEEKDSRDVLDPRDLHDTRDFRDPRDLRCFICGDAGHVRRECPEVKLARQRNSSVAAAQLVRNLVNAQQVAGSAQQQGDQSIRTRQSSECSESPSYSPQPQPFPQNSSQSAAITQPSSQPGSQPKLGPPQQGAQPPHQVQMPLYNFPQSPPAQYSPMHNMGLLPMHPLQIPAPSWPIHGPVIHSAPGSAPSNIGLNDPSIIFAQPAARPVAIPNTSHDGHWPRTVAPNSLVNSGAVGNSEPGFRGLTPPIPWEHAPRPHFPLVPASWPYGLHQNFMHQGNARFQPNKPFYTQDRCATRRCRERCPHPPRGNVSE
UniProt O60637: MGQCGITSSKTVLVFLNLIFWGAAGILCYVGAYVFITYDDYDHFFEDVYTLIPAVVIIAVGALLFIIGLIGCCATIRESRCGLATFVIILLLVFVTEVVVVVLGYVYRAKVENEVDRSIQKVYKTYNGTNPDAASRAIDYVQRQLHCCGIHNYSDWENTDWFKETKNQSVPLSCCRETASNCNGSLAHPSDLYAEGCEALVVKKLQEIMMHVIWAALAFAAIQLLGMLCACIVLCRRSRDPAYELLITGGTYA
UniProt P51965: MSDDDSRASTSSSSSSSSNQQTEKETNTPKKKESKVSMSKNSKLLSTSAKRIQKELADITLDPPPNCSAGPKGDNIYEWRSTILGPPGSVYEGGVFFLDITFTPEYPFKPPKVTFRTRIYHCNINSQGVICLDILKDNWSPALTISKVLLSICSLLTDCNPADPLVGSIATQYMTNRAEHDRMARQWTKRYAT

Columns and labels:
Assay in all cases: log2 fold change, soluble protein after heating vs DMSO (PISA); higher = thermal stabilisation; K562 cells, 10 uM, 30 min; active = over 0.2 and 3.5 SD of the protein, either way, in both replicates (recomputed)
bafetinib = compound: Cc1ccc(NC(=O)c2ccc(CN3CC[C@H](N(C)C)C3)c(C(F)(F)F)c2)cc1Nc1nccc(-c2cncnc2)n1 [bafetinib]
Procedure, shortened: (§1)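 K562 cells at 2×10^6 cells/mL were treated with 10 μM compound for 30 min. Aliquots were heated for 3 min across 48°C-58°C, pooled, and extracted in PBS with 0.5% NP-40 at 4°C; soluble protein was the supernatant after 21,000xg for 90 min. Soluble protein was quantified by TMTpro 16plex LC-MS/MS with channel sums equalised, and reported as log2 fold change in thermal stability against DMSO controls, with values from duplicates.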

[1] = compound: Cc1cccc(CC(=O)N2CCc3c2ccc(-c2cn(C)c4ncnc(N)c24)c3F)n1
Procedure, shortened: as §1

dasatinib = compound: Cc1nc(Nc2ncc(C(=O)Nc3c(C)cccc3Cl)s2)cc(N2CCN(CCO)CC2)n1 [dasatinib]
Procedure, shortened: as §1

tipifarnib = compound: Cn1cncc1[C@@](N)(c1ccc(Cl)cc1)c1ccc2c(c1)c(-c1cccc(Cl)c1)cc(=O)n2C [tipifarnib]
Procedure, shortened: as §1

[2] = compound: NC(=O)Nc1cc(-c2cccc(F)c2)sc1C(=O)N[C@H]1CCCNC1
Procedure, shortened: as §1

[3] = compound: NCC(=O)Nc1ccc(-n2nc(C(F)(F)F)cc2-c2ccc3c(ccc4ccccc43)c2)cc1
Procedure, shortened: as §1

entinostat = compound: Nc1ccccc1NC(=O)c1ccc(CNC(=O)OCc2cccnc2)cc1 [entinostat]
Procedure, shortened: as §1

vorinostat = compound: O=C(CCCCCCC(=O)Nc1ccccc1)NO [vorinostat]
Procedure, shortened: as §1

citarinostat = compound: O=C(CCCCCCNC(=O)c1cnc(N(c2ccccc2)c2ccccc2Cl)nc1)NO [citarinostat]
Procedure, shortened: as §1

[4] = compound: O=C1NC(=O)C(c2cnc3ccccn23)=C1c1cn2c3c(cc(F)cc13)CN(C(=O)N1CCCCC1)CC2
Procedure, shortened: as §1

[5] = compound: c1cc(OCCN2CCCCC2)cc(-c2n[nH]c3ccc(-c4nnc[nH]4)cc23)c1
Procedure, shortened: as §1

nilotinib = compound: Cc1cn(-c2cc(NC(=O)c3ccc(C)c(Nc4nccc(-c5cccnc5)n4)c3)cc(C(F)(F)F)c2)cn1 [nilotinib]
Procedure, shortened: as §1

[6] = compound: Cc1nc(Nc2n[nH]c3c2CN(C(=O)N[C@H](CN(C)C)c2ccccc2)C3(C)C)c2sccc2n1
Procedure, shortened: as §1

[7] = compound: Cc1ncc(-c2ccnc(Nc3ccc(S(C)(=O)=O)cc3)n2)n1C(C)C
Procedure, shortened: as §1

[8] = compound: Cn1cc(-c2ccc3c(c2)CCN3C(=O)Cc2cccc(C(F)(F)F)c2)c2c(N)ncnc21
Procedure, shortened: as §1

[9] = compound: Cn1cc(-c2ccc3nnc(C(F)(F)c4ccc5ncccc5c4)n3n2)cn1
Procedure, shortened: as §1

mubritinib = compound: FC(F)(F)c1ccc(/C=C/c2nc(COc3ccc(CCCCn4ccnn4)cc3)co2)cc1 [mubritinib]
Procedure, shortened: as §1

[10] = compound: NC1(c2ccc(-c3nc4ccn5c(=O)[nH]nc5c4cc3-c3ccccc3)cc2)CCC1
Procedure, shortened: as §1

silmitasertib = compound: O=C(O)c1ccc2c(c1)nc(Nc1cccc(Cl)c1)c1ccncc12 [silmitasertib]
Procedure, shortened: as §1

[11] = compound: NC(=O)c1cnc(N[C@@H]2CCCC[C@@H]2N)nc1Nc1cccc(-n2nccn2)c1
Procedure, shortened: as §1

Measured: log2 fold change

TXNRD1 isoform 7 (UniProt Q16881)
inactive: bafetinib -0.124 | [1] 0.001 | dasatinib -0.052 | tipifarnib -0.051 | [2] -0.083 | [3] -0.214 | entinostat 0.065 | vorinostat 0.21 | citarinostat -0.171 | [4] -0.227 | [5] 0.171

UBE2K (UniProt D6RDM7)
inactive: bafetinib -0.264 | nilotinib -0.064 | [6] -0.215 | dasatinib 0.226 | [7] -0.096 | [8] -0.188 | [9] 0.059 | tipifarnib 0.219 | [2] -0.387 | [3] -0.078 | entinostat -0.04 | citarinostat -0.218 | [4] 0.098 | [5] -0.409

TUT4 (UniProt Q5TAX3)
inactive: bafetinib -0.281 | [1] 0.074 | nilotinib -0.153 | [6] 0.01 | dasatinib -0.105 | [7] -0.116 | [8] -0.097 | [9] -0.066 | tipifarnib -0.049 | mubritinib -0.01 | [2] 0.028 | [10] 0.07 | [3] -0.349 | entinostat 0.004 | vorinostat -0.032 | citarinostat -0.161 | silmitasertib 0.094 | [4] 0.322 | [5] -0.063

TSPAN3 (UniProt O60637)
inactive: bafetinib -0.09 | nilotinib 0.05 | [6] 0.006 | dasatinib -0.044 | [7] 0.009 | [8] 0.098 | [9] 0.123 | tipifarnib 0.085 | mubritinib 0.03 | [2] 0.047 | [11] 0.015 | [10] -0.041 | [3] -0.134 | entinostat -0.026 | citarinostat -0.007 | silmitasertib 0.098 | [5] -0.044

UBE2E1 (UniProt P51965)
inactive: bafetinib -0.003 | [1] -0.048 | nilotinib -0.071 | [6] 0.018 | dasatinib -0.05 | [7] 0.031 | [9] 0.228 | tipifarnib -0.133 | mubritinib 0.138 | [2] 0.033 | [11] -0.046 | [10] 0.317 | [3] -0.213 | entinostat 0.11 | vorinostat -0.028 | silmitasertib 0.103 | [4] -0.038
